This passage reports binding results from paper PMC4452847.

No constants are given. Whether binding was seen depends on the method and setting. In cells and extracts the contact can be indirect. Some binding calls cover weakened binding; strength is not graded here. Tags and fused reporters may be left off the sequences shown.

This test concerns the target myc-tagged kalirin-7 (pEAK10-His-Myc-Kal7) (UniProt P97924). The test is described as follows: co-IP; lysates of HEK293 cells transfected singly with HA-NL1-AB, myc-Kal-7 or FLAG-DISC1 were mixed as indicated (with or without the third lysate), then immunoprecipitated; immunoblot. Background: A western blot detects proteins with antibodies after separation by electrophoresis.

B1: mouse FLAG-myc-tagged DISC1 (protein, UniProt Q811T9 1-852)
chain: MQGGGPRGAPIHSPSHGADSGHGLPPAVAPQRRRLTRRPGYMRSTAGSGIGFLSPAVGMPHPSSAGLTGQQSQHSQSKAGQCGLDPGSHCQASLVGKPFLKSSLVPAVASEGHLHPAQRSMRKRPVHFAVHSKNDSRQSERLTGSFKPGDSGFWQELLSSDSFKSLAPSLDAPWNKGSRGLKTVKPLASPALNGPADIASLPGFQDTFTSSFSFIQLSLGAAGERGEAEGCLPSREAEPLHQRPQEMAAEASSSDRPHGDPRHLWTFSLHAAPGLADLAQVTRSSSRQSECGTVSSSSSDTGFSSQDASSAGGRGDQGGGWADAHGWHTLLREWEPMLQDYLLSNRRQLEVTSLILKLQKCQEKVVEDGDYDTAETLRQRLEELEQEKGRLSWALPSQQPALRSFLGYLAAQIQVALHGATQRAGSDDPEAPLEGQLRTTAQDSLPASITRRDWLIREKQRLQKEIEALQARMSALEAKEKRLSQELEEQEVLLRWPGCDLMALVAQMSPGQLQEVSKALGETLTSANQAPFQVEPPETLRSLRERTKSLNLAVRELTAQVCSGEKLCSSLRRRLSDLDTRLPALLEAKMLALSGSCFSTAKELTEEIWALSSEREGLEMFLGRLLALSSRNSRRLGIVKEDHLRCRQDLALQDAAHKTRMKANTVKCMEVLEGQLSSCRCPLLGRVWKADLETCQLLMQSLQLQEAGSSPHAEDEEQVHSTGEAAQTAALAVPRTPHPEEEKSPLQVLQEWDTHSALSPHCAAGPWKEDSHIVSAEVGEKCEAIGVKLLHLEDQLLGAMYSHDEALFQSLQGELQTVKETLQAMILQLQPTKEAGEASASYPTAGAQETEA
Turning to B1, the binding result is “binds”.
